According to PMC12220244:
No constants are given. Whether binding was seen depends on the method and setting. Binding seen in cells or lysates may run through a third protein. Tags and fused reporters may be left off the sequences shown.

Sequences of proteins named here, by UniProt entry; tags and fusion partners are left off.
UniProt P17542: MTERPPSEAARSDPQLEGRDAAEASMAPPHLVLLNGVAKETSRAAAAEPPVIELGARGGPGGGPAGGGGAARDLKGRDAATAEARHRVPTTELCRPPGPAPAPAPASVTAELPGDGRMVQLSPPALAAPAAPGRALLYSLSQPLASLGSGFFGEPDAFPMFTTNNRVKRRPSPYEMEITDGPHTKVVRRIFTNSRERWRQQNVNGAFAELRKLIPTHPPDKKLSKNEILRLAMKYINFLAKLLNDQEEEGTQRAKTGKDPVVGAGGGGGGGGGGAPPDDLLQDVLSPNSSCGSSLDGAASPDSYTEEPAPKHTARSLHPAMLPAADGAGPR

Biological target: T1, Myc-TRAF6 (1–288 aa) mutant (UniProt Q9Y4K3)
T1 sequence: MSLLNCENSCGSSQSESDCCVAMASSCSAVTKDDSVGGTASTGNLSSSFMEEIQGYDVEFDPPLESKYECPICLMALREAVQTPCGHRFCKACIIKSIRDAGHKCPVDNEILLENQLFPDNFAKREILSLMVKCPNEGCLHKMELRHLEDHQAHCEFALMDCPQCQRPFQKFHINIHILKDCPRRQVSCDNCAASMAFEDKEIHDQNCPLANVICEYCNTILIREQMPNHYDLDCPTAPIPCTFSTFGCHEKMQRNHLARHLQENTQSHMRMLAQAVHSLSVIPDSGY
Assay: co-IP; HEK293T co-transfected with Flag-TAL1 and Myc-His-TRAF6 constructs for 48 h; immunoprecipitation with anti-Flag or anti-Myc beads, immunoblot

For “Flag-tagged full-length (FL) TAL1 (from UniProt P17542 1-331)”, the binding was “no binding”.
